Data as given in PubChem BioAssay AID720505 (Drosophila RNAi Screening Center, 2013)
The screen tested about 20,000 reagents; shown is a random part of those with a known target gene and a result. Of all reagents, about 2,100 (10%) got an active call. 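Raw plate signals without normalisation; calls rest on control-based scores that were not deposited; replicate 2 separates called from uncalled poorly.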 No sequences are given here. Not given: the amount of reagent, the time to read-out.

Purpose: 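Fly regulators or components of the CRAC channel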 (primary screen)
Cell system: Drosophila S2R+ cells
Knock-down reagent: long dsRNA against Drosophila genes
Conditions: thapsigargin (2 µM) in calcium-free buffer to empty internal stores, then 2 mM calcium added back
Measured: 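Fluo-4 signal in 384-well plates read on a FLIPR after thapsigargin (2 µM, calcium-free) store depletion and 2 mM calcium add-back; unnormalised mean endpoint per well; screen run twice, selected wells retested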
Reading the numbers: calcium signal and retest calcium signal: higher = more calcium entry after store depletion
Call rule: 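Knock-downs counted as hits when calcium entry dropped relative to STIM1 positive and Rho1 negative controls present on each plate; roughly 1500 genes called, with reductions of differing size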
Meaning of the calls: active = called as lowering calcium entry; inactive = not called

CG7376 [DRSC10829] → calcium signal, replicate 1: 119; calcium signal, replicate 2: 136; call: inactive
CG12934 [DRSC06247] → calcium signal, replicate 1: 123; calcium signal, replicate 2: 118; call: inactive
CG14367 [DRSC14829] → calcium signal, replicate 1: 139; calcium signal, replicate 2: 198; call: inactive
Ant2 (Adenine nucleotide translocase 2) [DRSC19330] → calcium signal, replicate 1: 165; calcium signal, replicate 2: 135; call: inactive
CG32099 [DRSC21352] → calcium signal, replicate 1: 146; calcium signal, replicate 2: 103; call: inactive
salm (spalt major) [DRSC03606] → calcium signal, replicate 1: 184; calcium signal, replicate 2: 178; call: inactive
pont (pontin) [DRSC17029] → calcium signal, replicate 1: 129; calcium signal, replicate 2: 90.4; call: inactive
CG32344 [DRSC08578] → calcium signal, replicate 1: 165; calcium signal, replicate 2: 102; call: inactive
CheA29a (Chemosensory protein A 29a) [DRSC21486] → calcium signal, replicate 1: 183; calcium signal, replicate 2: 116; call: inactive
Uch (Ubiquitin carboxy-terminal hydrolase) [DRSC00797] → calcium signal, replicate 1: 38.8; calcium signal, replicate 2: 94.4; call: active
CG3065 [DRSC04333] → calcium signal, replicate 1: 161; calcium signal, replicate 2: 103; call: inactive
Ir62a (Ionotropic receptor 62a) [DRSC08250] → calcium signal, replicate 1: 77.8; calcium signal, replicate 2: 95.8; call: inactive
ARY (retired record) [DRSC20867] → calcium signal, replicate 1: 79.8; calcium signal, replicate 2: 14966; call: inactive

Only “calcium signal, replicate 1” (3 entries from above):
CG7376 [DRSC10829]: 119
CG12934 [DRSC06247]: 123
CG14367 [DRSC14829]: 139

The listing continues.
CG17974 [DRSC04299] → calcium signal, replicate 1: 202; calcium signal, replicate 2: 136; call: inactive
CG1418 [DRSC06447] → calcium signal, replicate 1: 87.8; calcium signal, replicate 2: 128; call: inactive
Kaz1-ORFB [DRSC08669] → calcium signal, replicate 1: 96.3; calcium signal, replicate 2: 155; call: inactive
Tbcd (Tubulin-binding cofactor D) [DRSC00273] → calcium signal, replicate 1: 82.3; calcium signal, replicate 2: 143; call: inactive
AnxB11 (Annexin B11) [DRSC19331] → calcium signal, replicate 1: 121; calcium signal, replicate 2: 139; call: inactive
Nup153 (Nucleoporin 153kD) [DRSC19904] → calcium signal, replicate 1: 72; calcium signal, replicate 2: 104; retest calcium signal, replicate 1: 6371; retest calcium signal, replicate 2: 115; call: active
CG33257 [DRSC09917] → calcium signal, replicate 1: 92.2; calcium signal, replicate 2: 150; call: inactive
CG15293 [DRSC01919] → calcium signal, replicate 1: 97.4; calcium signal, replicate 2: 120; call: inactive
Lnk [DRSC16729] → calcium signal, replicate 1: 78.5; calcium signal, replicate 2: 138; call: inactive
Ppat-Dpck [DRSC09744] → calcium signal, replicate 1: 125; calcium signal, replicate 2: 75.2; call: inactive
Oatp58Db (Organic anion transporting polypeptide 58Db) [DRSC04364] → calcium signal, replicate 1: 204; calcium signal, replicate 2: 88.5; call: inactive
CG11898 [DRSC14432] → calcium signal, replicate 1: 99.5; calcium signal, replicate 2: 94.7; retest calcium signal, replicate 1: 68.3; retest calcium signal, replicate 2: 103; call: inactive
Obp56h (Odorant-binding protein 56h) [DRSC06433] → calcium signal, replicate 1: 142; calcium signal, replicate 2: 129; call: inactive
mub (mushroom-body expressed) [DRSC11896] → calcium signal, replicate 1: 108; calcium signal, replicate 2: 103; call: inactive
sds22 [DRSC17052] → calcium signal, replicate 1: 132; calcium signal, replicate 2: 173; call: inactive
